Results from US20200108043A1, “COMPOUNDS AND COMPOSITIONS FOR EXTENDING LIFESPAN OF A SUBJECT” (YALE UNIVERSITY, priority 2017, published 2020).
For at least one compound, name, drawing or mass did not settle the structure.

How the values were obtained:
[1] = tested on: Saccharomyces cerevisiae; experiment: High-Life (High throughput replicative Lifespan measurement) flow cytometry assay in MEP yeast; format: cell-based
Experimental: Cells were labeled with NHS-fluorescein as described above, then diluted to 20 cells/μL in media. 80 μL/well was aliquoted to 384-well plates, which were covered with a breathable membrane and placed on a shaker platform in a humidified incubator. After 3 hours, the plates were removed from the incubator and each well was treated with 20 μL pre-warmed, 30° C. 5 μM β-estradiol in media. In the case of ibuprofen or compound-treated wells, the compound was diluted in this volume at a 5× concentration to achieve a final concentration of 10 μM, or 100 μM for ibuprofen. The plates were then returned to the incubator. At indicated times, one plate was removed from the incubator and placed on an autosampler cooled to 8° C. attached to a Stratedigm flow cytometer. […]
In order to test the lifespan of model organisms on both a large-scale and with quick turn-around, a massively multiplexed method was developed to measure replicative lifespan in the short-lived model organisms Saccharomyces cerevisiae. […] Each parameter is measured using a flow cytometer. […]
The High-Life method was then tested to determine if it was suitable to screening for compounds that extend replicative lifespan. […] The effect of these compounds on High-Life readings was assayed after 24 hours in culture at 10 μM concentration. […]

[2] = tested on: S. cerevisiae; format: cell-based; conditions: 10 μM proguanil, with or without 10 μg/mL folinic acid
Experimental: To obtain the single-cell level data for the age and generation-durations of replicatively aging mother cells, data reported in Liu, P., et al., Cell Rep. 634-644 (2015) was re-analyzed. The data was collected in the same media condition (CSM 2% glucose) as reported elsewhere herein. Cells were grown for ˜24 hours in CSM 2% glucose prior to loading to the microfluidic device. Once cells were loaded, media was swapped to provide CSM 2% glucose control media (untreated), media containing DMSO as a vehicle control (American Bio AB00435), media containing 10 μM terreic acid (Sigma SML0480), media containing 10 μM mycophenolic acid (Sigma M5255), or media containing another compound at the indicated concentration. An automated microscope was used to track […], and replicative lifespan was later determined by counting the number of daughters produced before death. In the case of compound validation, only newborn cells were included in the lifespan experiment. To compare the replicative lifespan of labeled and unlabeled cells, only cells that were present within the traps at the start of the experiment were included. […]
Differences in lifespan characteristics were assessed through Log-Rank test using MATLAB with a cut-off value of P=0.05. […] Differences in proteasome activity were assessed using the unpaired, two-tailed, parametric t-test function of the GraphPad Prism software. […]

## CCc1nc(N)nc(N)c1-c1ccc(Cl)cc1 [Pyrimethamine]
[1]; testing conditions identical to Example 3 (10 μM, 24 hours)
  lifespan extending properties (High-Life): at least some lifespan extending properties

## [H]/N=C(\N/C(=N/[H])Nc1ccc(Cl)cc1)NC(C)C [proguanil]
[2]
  replicative lifespan with or without folinic acid: longevity effect

## CO[C@H]1C[C@@H]2CC[C@@H](C)[C@@](O)(O2)C(=O)C(=O)N2CCCC[C@H]2C(=O)O[C@H]([C@H](C)C[C@@H]2CC[C@@H](O)[C@H](OC)C2)CC(=O)[C@H](C)/C=C(\C)[C@@H](O)[C@@H](OC)C(=O)[C@H](C)C[C@H](C)/C=C/C=C/C=C/1C [rapamycin]
[1]; 10 μM, 24 hours in culture, 3-4 replicate wells, repeat of screen hits
  average High-Life readings (progenitor fraction viable vs CF405M intensity) relative to controls: at least slightly above controls
